Experimental data taken from publication PMC10087458 (Chemical Biology & Drug Design, 2022).

What follows are molecules tested on Mycobacterium bovis BCG (ATCC35734). Conditions: ratio between GIC50 (RAW 264.7) and MIC90 BCG.
Assay type: cell-based

Row | Compound | SI GIC50/MIC90 M. bovis BCG
1 | CS(=O)(=O)OCCOCCOCCOCCOCC#Cc1nc(N)c2ncn([C@@H]3O[C@H](CO)[C@@H](O)[C@H]3O)c2n1 [10b] | 1.0
2 | CS(=O)(=O)OCCOCCOCCOCCOCCOCC#Cc1nc(N)c2ncn([C@@H]3O[C@H](CO)[C@@H](O)[C@H]3O)c2n1 [10c] | 1.0
3 | CC1(C)O[C@@H]2[C@H](O1)[C@@H](CO)O[C@H]2n1cnc2c(N)nc(C#CCOCCOCCOCCOCCOS(C)(=O)=O)nc21 [11b] | 0.1
4 | CC1(C)O[C@@H]2[C@H](O1)[C@@H](CO)O[C@H]2n1cnc2c(N)nc(C#CCOCCOCCOCCOCCOCCOS(C)(=O)=O)nc21 [11c] | 0.3
5 | CC1(C)O[C@@H]2[C@H](O1)[C@@H](COS(N)(=O)=O)O[C@H]2n1cnc2c(N)nc(C#CCOCCOCCOCCOCCOCCOS(C)(=O)=O)nc21 [12c] | 0.1
6 | NNC(=O)c1ccncc1 [Isoniazid, isoniazid, reference compound] | 1020.4
7 | Nc1nc(I)nc2c1ncn2[C@@H]1O[C@H](CO)[C@@H](O)[C@H]1O [compound 9, 2‐iodoadenosine, reference compound] | 16
